Assay results from the supplement of paper PMC10849652.
Some of the results follow. Residues, ends and D or L forms follow the SMILES beside them. *: point of attachment. Cbz = O=C(OCc1ccccc1)*

Amino acid sequences for entries named in this document (tags omitted). A change or cut given only in a name is not applied to a line headed by its entry.
UniProt Q6EEV4: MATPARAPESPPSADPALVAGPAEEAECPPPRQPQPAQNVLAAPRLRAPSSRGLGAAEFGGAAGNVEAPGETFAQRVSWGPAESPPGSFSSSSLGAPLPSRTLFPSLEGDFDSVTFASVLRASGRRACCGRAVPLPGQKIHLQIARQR
UniProt P41247: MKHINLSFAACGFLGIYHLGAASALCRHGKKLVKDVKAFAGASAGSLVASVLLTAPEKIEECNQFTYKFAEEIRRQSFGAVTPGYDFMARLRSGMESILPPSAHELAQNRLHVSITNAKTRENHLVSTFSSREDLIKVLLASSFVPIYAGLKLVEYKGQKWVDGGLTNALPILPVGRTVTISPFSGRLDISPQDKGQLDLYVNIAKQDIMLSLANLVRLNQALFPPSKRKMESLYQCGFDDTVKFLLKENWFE
UniProt Q9Y3C6: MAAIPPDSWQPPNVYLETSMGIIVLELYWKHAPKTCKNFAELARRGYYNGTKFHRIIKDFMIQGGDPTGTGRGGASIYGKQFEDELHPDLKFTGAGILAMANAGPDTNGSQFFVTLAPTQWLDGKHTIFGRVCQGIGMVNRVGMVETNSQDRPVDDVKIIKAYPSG
UniProt Q9Y6A1: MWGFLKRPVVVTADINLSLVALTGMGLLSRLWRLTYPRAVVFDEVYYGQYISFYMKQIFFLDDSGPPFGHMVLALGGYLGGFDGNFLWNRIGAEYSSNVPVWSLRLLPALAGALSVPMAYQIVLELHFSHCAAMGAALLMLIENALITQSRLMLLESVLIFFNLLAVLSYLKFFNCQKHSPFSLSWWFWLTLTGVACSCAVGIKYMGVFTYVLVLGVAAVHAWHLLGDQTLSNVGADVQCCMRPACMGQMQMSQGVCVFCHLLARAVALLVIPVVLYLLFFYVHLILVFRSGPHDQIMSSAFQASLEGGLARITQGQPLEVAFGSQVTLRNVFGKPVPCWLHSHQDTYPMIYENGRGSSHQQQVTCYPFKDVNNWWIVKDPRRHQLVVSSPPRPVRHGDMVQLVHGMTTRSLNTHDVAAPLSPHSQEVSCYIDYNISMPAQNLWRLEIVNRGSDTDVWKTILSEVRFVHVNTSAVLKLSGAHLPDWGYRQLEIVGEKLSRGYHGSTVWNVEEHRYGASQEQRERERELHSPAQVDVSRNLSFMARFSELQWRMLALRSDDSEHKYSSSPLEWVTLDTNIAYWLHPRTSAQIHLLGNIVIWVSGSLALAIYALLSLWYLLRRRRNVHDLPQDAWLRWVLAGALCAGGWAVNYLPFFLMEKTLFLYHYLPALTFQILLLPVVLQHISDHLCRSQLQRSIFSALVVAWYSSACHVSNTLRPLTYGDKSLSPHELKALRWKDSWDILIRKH
UniProt P45877: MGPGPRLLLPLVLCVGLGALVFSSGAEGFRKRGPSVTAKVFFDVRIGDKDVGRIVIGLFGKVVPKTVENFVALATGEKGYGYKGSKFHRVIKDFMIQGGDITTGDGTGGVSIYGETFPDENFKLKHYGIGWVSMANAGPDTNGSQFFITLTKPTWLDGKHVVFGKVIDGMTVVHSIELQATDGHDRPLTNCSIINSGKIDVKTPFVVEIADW
UniProt Q9NRY6: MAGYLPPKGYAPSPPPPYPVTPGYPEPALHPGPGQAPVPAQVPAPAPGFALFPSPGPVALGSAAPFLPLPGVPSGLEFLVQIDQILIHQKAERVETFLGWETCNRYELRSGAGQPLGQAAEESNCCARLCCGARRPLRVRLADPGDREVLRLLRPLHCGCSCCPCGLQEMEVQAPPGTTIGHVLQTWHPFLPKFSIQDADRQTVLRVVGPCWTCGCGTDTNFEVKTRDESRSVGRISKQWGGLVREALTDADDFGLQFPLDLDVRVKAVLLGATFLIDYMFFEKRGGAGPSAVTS
UniProt Q14181: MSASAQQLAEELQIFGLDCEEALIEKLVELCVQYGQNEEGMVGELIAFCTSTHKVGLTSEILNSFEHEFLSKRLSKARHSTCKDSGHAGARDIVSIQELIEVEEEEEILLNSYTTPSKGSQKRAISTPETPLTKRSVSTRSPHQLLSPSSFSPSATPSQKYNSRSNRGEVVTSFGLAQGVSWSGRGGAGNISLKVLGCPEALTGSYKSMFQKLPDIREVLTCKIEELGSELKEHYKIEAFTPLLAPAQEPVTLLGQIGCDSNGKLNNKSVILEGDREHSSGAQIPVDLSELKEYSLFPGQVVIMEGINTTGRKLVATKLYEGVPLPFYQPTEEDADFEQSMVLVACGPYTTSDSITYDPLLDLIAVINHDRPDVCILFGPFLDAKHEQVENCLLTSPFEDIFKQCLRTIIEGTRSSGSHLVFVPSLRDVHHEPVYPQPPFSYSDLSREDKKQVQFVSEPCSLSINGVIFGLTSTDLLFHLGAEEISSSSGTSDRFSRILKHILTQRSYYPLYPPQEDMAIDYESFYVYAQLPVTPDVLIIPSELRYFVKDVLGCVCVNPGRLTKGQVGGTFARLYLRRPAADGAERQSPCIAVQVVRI
UniProt O75145: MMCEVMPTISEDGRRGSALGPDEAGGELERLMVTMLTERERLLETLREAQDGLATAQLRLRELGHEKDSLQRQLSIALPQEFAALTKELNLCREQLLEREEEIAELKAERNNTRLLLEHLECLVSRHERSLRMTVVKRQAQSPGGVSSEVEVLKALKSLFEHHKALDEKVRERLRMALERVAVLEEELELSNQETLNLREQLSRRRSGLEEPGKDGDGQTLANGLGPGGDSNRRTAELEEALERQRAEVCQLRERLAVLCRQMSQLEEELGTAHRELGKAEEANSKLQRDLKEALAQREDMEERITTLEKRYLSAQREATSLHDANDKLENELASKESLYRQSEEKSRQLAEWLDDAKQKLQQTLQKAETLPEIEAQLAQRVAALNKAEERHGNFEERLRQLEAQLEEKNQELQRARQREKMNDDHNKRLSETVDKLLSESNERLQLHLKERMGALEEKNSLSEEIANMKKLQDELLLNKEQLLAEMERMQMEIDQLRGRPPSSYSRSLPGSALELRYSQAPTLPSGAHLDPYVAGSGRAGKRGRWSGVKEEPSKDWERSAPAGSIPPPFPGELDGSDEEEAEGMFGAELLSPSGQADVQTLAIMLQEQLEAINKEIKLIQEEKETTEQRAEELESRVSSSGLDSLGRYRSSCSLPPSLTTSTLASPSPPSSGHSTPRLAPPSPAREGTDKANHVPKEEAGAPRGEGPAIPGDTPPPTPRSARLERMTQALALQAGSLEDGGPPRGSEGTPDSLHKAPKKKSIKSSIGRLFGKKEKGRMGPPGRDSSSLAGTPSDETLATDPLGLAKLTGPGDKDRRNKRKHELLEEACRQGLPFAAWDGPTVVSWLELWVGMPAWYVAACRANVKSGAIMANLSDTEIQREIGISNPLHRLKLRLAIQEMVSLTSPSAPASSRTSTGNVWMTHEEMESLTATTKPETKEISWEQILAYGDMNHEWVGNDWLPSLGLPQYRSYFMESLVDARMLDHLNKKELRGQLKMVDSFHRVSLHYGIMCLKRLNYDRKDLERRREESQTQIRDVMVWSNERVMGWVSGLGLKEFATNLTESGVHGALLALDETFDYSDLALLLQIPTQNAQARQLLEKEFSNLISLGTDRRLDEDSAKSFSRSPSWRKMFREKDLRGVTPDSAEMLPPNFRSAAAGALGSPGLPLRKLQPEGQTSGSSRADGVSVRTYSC
UniProt Q9HCU8: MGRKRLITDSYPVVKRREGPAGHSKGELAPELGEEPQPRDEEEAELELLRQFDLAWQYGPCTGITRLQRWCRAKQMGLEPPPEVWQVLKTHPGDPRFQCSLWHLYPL
UniProt Q8TD55: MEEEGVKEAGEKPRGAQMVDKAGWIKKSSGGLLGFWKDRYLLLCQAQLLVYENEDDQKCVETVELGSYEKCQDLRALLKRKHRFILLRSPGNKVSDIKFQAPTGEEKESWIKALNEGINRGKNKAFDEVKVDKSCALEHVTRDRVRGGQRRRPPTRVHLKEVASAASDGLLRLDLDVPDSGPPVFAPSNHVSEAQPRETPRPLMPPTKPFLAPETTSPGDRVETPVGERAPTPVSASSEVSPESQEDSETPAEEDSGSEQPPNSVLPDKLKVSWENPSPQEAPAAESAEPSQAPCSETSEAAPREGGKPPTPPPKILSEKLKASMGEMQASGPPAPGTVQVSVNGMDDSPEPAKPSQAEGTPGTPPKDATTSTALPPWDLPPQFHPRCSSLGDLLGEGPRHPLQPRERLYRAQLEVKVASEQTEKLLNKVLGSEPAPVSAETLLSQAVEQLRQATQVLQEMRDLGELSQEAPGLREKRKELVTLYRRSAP
UniProt Q8NBT0: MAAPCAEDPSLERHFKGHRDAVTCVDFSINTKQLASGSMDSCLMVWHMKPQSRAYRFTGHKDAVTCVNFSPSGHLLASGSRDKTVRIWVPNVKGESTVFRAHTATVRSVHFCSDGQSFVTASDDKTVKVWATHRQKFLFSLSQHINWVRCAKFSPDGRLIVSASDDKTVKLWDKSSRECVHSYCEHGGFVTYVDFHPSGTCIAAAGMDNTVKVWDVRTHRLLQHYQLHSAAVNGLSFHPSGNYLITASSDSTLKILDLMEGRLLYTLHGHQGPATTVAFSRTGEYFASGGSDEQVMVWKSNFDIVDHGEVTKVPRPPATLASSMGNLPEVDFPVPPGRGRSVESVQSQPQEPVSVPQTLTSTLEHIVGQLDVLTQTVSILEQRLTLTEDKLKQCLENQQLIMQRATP
UniProt Q9Y4D7: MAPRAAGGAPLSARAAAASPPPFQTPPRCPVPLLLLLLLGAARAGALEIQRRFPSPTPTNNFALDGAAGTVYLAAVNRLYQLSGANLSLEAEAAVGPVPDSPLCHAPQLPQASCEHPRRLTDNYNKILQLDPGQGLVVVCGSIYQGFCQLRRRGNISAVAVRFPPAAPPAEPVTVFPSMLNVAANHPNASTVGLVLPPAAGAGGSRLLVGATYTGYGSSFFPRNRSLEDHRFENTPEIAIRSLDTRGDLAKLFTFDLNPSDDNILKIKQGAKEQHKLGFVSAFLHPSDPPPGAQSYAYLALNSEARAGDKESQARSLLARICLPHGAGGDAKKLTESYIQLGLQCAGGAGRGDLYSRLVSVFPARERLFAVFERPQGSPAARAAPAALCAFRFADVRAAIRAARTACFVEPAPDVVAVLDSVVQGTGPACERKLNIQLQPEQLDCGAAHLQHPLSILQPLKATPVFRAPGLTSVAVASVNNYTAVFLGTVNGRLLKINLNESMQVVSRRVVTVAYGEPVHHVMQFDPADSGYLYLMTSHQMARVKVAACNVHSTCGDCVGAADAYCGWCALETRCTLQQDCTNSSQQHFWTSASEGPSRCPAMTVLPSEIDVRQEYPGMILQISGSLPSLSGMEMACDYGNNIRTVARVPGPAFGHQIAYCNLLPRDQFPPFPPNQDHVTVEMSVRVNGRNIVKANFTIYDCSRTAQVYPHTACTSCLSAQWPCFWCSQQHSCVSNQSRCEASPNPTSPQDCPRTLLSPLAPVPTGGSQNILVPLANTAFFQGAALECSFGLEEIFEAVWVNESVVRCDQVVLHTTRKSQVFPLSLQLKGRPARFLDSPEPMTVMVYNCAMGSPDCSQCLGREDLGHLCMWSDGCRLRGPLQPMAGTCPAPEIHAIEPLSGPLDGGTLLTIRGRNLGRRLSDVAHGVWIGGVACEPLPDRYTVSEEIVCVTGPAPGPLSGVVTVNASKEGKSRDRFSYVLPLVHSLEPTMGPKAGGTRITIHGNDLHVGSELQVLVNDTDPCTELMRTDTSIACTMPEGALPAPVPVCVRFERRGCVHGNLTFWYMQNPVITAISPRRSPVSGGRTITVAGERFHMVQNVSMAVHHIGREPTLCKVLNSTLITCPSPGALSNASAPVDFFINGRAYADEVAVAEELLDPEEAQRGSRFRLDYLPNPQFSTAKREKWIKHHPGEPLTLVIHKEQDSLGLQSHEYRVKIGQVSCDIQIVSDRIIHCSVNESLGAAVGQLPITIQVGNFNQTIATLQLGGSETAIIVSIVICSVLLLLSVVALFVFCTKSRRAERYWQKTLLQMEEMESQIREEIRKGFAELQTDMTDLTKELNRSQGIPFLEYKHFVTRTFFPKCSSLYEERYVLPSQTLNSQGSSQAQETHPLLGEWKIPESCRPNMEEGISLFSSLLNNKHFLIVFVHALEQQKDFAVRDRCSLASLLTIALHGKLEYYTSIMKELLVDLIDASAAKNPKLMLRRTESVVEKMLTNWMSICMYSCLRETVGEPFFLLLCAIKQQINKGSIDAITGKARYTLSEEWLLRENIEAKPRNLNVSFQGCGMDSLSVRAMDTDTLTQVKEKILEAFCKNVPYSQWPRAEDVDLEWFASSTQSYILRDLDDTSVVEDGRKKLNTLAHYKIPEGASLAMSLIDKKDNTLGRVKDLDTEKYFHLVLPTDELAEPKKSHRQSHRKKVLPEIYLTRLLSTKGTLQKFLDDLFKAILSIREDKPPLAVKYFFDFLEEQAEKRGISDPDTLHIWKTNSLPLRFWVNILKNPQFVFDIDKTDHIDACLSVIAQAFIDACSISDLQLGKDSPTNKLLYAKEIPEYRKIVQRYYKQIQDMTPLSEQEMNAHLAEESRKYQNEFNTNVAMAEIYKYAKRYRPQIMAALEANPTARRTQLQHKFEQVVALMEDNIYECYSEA

Legend:
Experiment in all cases: log2 fold change, soluble protein after heating vs DMSO (PISA); higher = thermal stabilisation; K562 cells, 10 uM, 30 min; active = over 0.2 and 3.5 SD of the protein, either way, in both replicates (recomputed)
erlotinib = compound: C#Cc1cccc(Nc2ncnc3cc(OCCOC)c(OCCOC)cc23)c1 [erlotinib]
Outline: (§1)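 Aliquots of K562 cells (2×10^6 cells/mL) treated with 10 μM compound for 30 min were heated for 3 min over 48°C-58°C. After pooling and extraction in PBS with 0.5% NP-40 at 4°C, soluble protein from a 21,000xg, 90 min spin was quantified by TMTpro 16plex LC-MS/MS with channel sums equalised. Thermal stability is expressed against control samples, from duplicates, as a log2 fold change.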

[1] = compound: C/C(=N\NC(=O)C1=CC(=CC=C1)S(=O)(=O)N2CCOCC2)/C3=C(C=CC(=C3)Cl)O
Outline: as §1

[2] = compound: C1=CC(=C(C=C1Cl)C2=NC3=NC=CN=C3C(=N2)NC4=CC=NC=C4)F
Outline: as §1

[3] = compound: C1=CC(=CC=C1C2=NC3=C(N2)C=C(C=C3)C(=O)N)OC4=CC=C(C=C4)Cl
Outline: as §1

[4] = compound: C1=CC2=C(C=CC(=C2)/C=C\3/C(=O)NC(=NCC4=CC=CS4)S3)N=C1
Outline: as §1

[5] = compound: C1=CC2=NC=CN=C2C=C1/C=C/3\C(=O)NC(=O)S3
Outline: as §1

[6] = compound: C1=CC=C2C(=C1)C3=NNC4=CC=CC(=C43)C2=O
Outline: as §1

[7] = compound: C1CCN(C1)C(=O)NC2=CC=CC(=C2)NC3=NC=C(C(=N3)NCCC4=CN=CN4)Br
Outline: as §1

[8] = compound: C1CN(CCC1(CC2=CC=C(C=C2)Cl)N)C3=NC=NC4=C3C=CN4
Outline: as §1

IRAK-1-4 Inhibitor I = compound: C1COCCN1CCN2C3=CC=CC=C3N=C2NC(=O)C4=CC(=CC=C4)[N+](=O)[O-] [IRAK-1-4 Inhibitor I]
Outline: as §1

ibrutinib = compound: C=CC(=O)N1CCC[C@@H](n2nc(-c3ccc(Oc4ccccc4)cc3)c3c(N)ncnc32)C1 [ibrutinib]
Outline: as §1

[9] = compound: CC(=O)c1cnc2ccc(-c3cc(Cl)c(O)c(Cl)c3)nc2c1N[C@H]1CC[C@H](CN(C)C)CC1
Outline: as §1

[10] = compound: CC(C)(O)CC(=O)NCCn1ccc2ncnc(Nc3ccc(Oc4cccc(C(F)(F)F)c4)c(Cl)c3)c21
Outline: as §1

[11] = compound: CC(C)C1=C2N=C(C=C(N2N=C1)NCC3=CC=CC=C3)NCCCCCCN
Outline: as §1

pinometostat = compound: CC(C)N(C[C@H]1O[C@@H](n2cnc3c(N)ncnc32)[C@H](O)[C@@H]1O)[C@H]1C[C@@H](CCc2nc3cc(C(C)(C)C)ccc3[nH]2)C1 [pinometostat]
Outline: as §1

[12] = compound: CC1=C(C2=C(C=C1)C(=O)C3=CC=CC=C3N2CCCN)C
Outline: as §1

[13] = compound: C1=CC=C(C=C1)C2=NC(=C(N2)C3=CC=NC=C3)C4=CC(=C(C=C4)Cl)O
Outline: as §1

ralimetinib = compound: CC(C)(C)Cn1c(N)nc2ccc(-c3[nH]c(C(C)(C)C)nc3-c3ccc(F)cc3)nc21 [ralimetinib]
Outline: as §1

[14] = compound: CC(C)C[C@@H](C=O)NC(=O)[C@H](CC(C)C)NC(=O)[C@H](CC(C)C)NC(=O)OCc1ccccc1
Outline: as §1

[15] = compound: CC1=C(C(CC(=O)N1)C2=CC=C(C=C2)C(F)(F)F)C(=O)NC3=C(C=C4C(=C3)C=NN4)F
Outline: as §1

Measured: log2 fold change

POLR2M (UniProt Q6EEV4)
inactive: erlotinib -0.044 | [1] 0.096 | [2] 0.242 | [3] 0.223 | [4] -0.006 | [5] -0.001 | [6] -0.048 | [7] -0.041 | [8] 0.024 | IRAK-1-4 Inhibitor I -0.014 | ibrutinib -0.075 | [9] -0.027 | [10] -0.091 | [11] 0.128 | pinometostat 0.005 | [12] 0.209

PNPLA4 (UniProt P41247)
inactive: erlotinib 0.426 | [1] 0.13 | [3] -0.176 | [4] -0.148 | [5] 0.133 | [13] -0.084 | [6] 0.059 | [7] 0.108 | [8] 0.029 | IRAK-1-4 Inhibitor I -0.094 | ibrutinib 0.012 | [9] 0.005 | ralimetinib -0.022 | [11] 0.115 | [14] 0.209 | pinometostat 0.049 | [12] -0.025

PMVK (UniProt Q15126)
inactive: erlotinib 0.001 | [1] -0.518 | [2] 0.006 | [3] 0.042 | [4] 0.052 | [5] -0.045 | [6] -0.115 | [7] -0.006 | [8] 0.15 | ibrutinib -0.039 | [9] -0.069 | [10] -0.072 | [11] -0.195 | [12] 0.061

POGZ (UniProt Q7Z3K3)
active: [12] -0.826
inactive: erlotinib 0.006 | [1] 0.085 | [2] 0.044 | [3] 0.033 | [4] -0.172 | [13] 0.023 | [6] 0.082 | [7] 0.026 | [8] 0.115 | IRAK-1-4 Inhibitor I -0.133 | [9] -0.183 | ralimetinib 0.083 | [10] -0.035 | [11] 0.066 | [14] 0.038 | pinometostat -0.05

PPIL1 (UniProt Q9Y3C6)
inactive: erlotinib 0.019 | [1] -0.009 | [2] -0.027 | [3] -0.012 | [4] 0.024 | [5] 0.061 | [13] -0.013 | [6] -0.025 | [7] -0.007 | [8] -0.027 | IRAK-1-4 Inhibitor I -0.046 | ibrutinib -0.011 | ralimetinib -0.02 | [10] -0.038 | [11] 0.08 | [14] 0.09 | pinometostat 0.082 | [12] 0.172
active: [9] 0.225

POMT1 (UniProt Q9Y6A1)
inactive: erlotinib -0.05 | [1] -0.093 | [2] -0.046 | [3] -0.06 | [4] 0.083 | [6] 0.009 | [7] 0.073 | [8] 0.067 | IRAK-1-4 Inhibitor I 0.261 | [9] -0.048 | [10] -0.123 | [11] -0.192 | pinometostat 0.097 | [12] -0.045

PPIC (UniProt P45877)
inactive: erlotinib -0.196 | [1] 0.151 | [2] -0.015 | [3] 0.105 | [4] 0.267 | [5] 0.027 | [6] -0.003 | IRAK-1-4 Inhibitor I 0.154 | ibrutinib -0.023 | [9] -0.122 | [10] -0.021 | [11] 0.023 | pinometostat -0.021 | [15] 0.053

Fetched one by one from the list above (2):
PPIC (UniProt P45877)
inactive: erlotinib -0.196 | [1] 0.151 | [2] -0.015 | [3] 0.105 | [4] 0.267 | [5] 0.027 | [6] -0.003 | IRAK-1-4 Inhibitor I 0.154 | ibrutinib -0.023 | [9] -0.122 | [10] -0.021 | [11] 0.023 | pinometostat -0.021 | [15] 0.053

POGZ (UniProt Q7Z3K3)
active: [12] -0.826
inactive: erlotinib 0.006 | [1] 0.085 | [2] 0.044 | [3] 0.033 | [4] -0.172 | [13] 0.023 | [6] 0.082 | [7] 0.026 | [8] 0.115 | IRAK-1-4 Inhibitor I -0.133 | [9] -0.183 | ralimetinib 0.083 | [10] -0.035 | [11] 0.066 | [14] 0.038 | pinometostat -0.05

Additional records follow:

PLSCR3 (UniProt Q9NRY6)
inactive: erlotinib 0.057 | [1] 0.163 | [3] 0.003 | [4] -0.036 | [6] -0.238 | [9] -0.041 | [11] 0.11 | [15] -0.092

POLA2 (UniProt Q14181)
active: [11] -0.258
inactive: erlotinib 0.042 | [1] 0.086 | [2] 0.021 | [3] -0.033 | [4] 0.048 | [5] 0.048 | [13] -0.044 | [6] -0.013 | [7] -0.063 | [8] -0.004 | IRAK-1-4 Inhibitor I 0.015 | ibrutinib -0.038 | [9] -0.073 | ralimetinib -0.028 | [10] -0.083 | [14] 0.011 | pinometostat 0.041 | [12] -0.021

PPFIA3 (UniProt O75145)
inactive: [2] -0.01 | [10] -0.009

POLQ (UniProt O75417)
inactive: [5] 0.009 | [13] -0.134 | ibrutinib -0.051 | ralimetinib -0.071 | [14] -0.101 | [15] -0.126

PPHLN1 isoform 3 (UniProt Q8NEY8)
inactive: [7] 0.033 | [8] -0.082 | [12] 0.19

POLD4 (UniProt Q9HCU8)
inactive: [1] -0.077 | [4] -0.066 | [5] 0.023 | [13] -0.045 | [6] -0.014 | [7] -0.032 | [8] 0.041 | IRAK-1-4 Inhibitor I 0.065 | ibrutinib 0.152 | [9] -0.045 | ralimetinib -0.101 | [14] 0.352 | pinometostat 0 | [15] 0.104 | [12] 0.091

PLEKHO2 (UniProt Q8TD55)
inactive: erlotinib 0.007 | [3] 0.057 | [5] 0 | [13] 0.005 | [7] -0.005 | [8] 0.035 | IRAK-1-4 Inhibitor I 0.12 | ibrutinib -0.086 | ralimetinib -0.078 | [11] -0.097 | [14] 0.08 | pinometostat 0.027 | [15] 0.066 | [12] 0.174

POC1A (UniProt Q8NBT0)
inactive: [1] -0.017 | [4] 0.002 | [5] 0.111 | [6] 0.032 | [7] -0.128 | [8] -0.094 | IRAK-1-4 Inhibitor I -0.079 | ibrutinib -0.06 | [9] -0.027 | pinometostat 0.044 | [12] -0.311

PLXND1 (UniProt Q9Y4D7)
inactive: [1] 0.364 | [4] 0.109 | [5] -0.38 | [13] 0.097 | [6] -0.104 | IRAK-1-4 Inhibitor I 0.029 | ibrutinib -0.274 | [9] -0.087 | ralimetinib 0.144 | [14] -0.368 | pinometostat -0.033
